The test concerns the target T1, Flag-YOD1 (ubiquitin thioesterase OTU1), expressed in HL-1 cells (UniProt Q8CB27).
T1 sequence: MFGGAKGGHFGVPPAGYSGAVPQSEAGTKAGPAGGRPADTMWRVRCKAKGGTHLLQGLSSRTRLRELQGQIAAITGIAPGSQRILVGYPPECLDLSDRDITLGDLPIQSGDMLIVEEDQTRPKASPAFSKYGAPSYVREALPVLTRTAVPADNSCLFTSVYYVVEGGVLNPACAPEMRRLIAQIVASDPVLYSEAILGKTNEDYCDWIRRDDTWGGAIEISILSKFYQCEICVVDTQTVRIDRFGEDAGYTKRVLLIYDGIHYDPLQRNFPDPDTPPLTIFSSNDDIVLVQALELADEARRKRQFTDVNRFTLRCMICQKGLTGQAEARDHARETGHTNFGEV
Description: affinity purification with mass spectrometry; HL-1 cells transfected with Flag-vector or Flag-YOD1, Ang II stimulation (1 μM for 24 hours); anti-Flag antibodies and Protein G–Sepharose beads; bound proteins by LC-MS/MS (interactome).

Chains of the proteins cited; added tags and fusions are not shown. Residues count along the entry.
UniProt Q9ERG0: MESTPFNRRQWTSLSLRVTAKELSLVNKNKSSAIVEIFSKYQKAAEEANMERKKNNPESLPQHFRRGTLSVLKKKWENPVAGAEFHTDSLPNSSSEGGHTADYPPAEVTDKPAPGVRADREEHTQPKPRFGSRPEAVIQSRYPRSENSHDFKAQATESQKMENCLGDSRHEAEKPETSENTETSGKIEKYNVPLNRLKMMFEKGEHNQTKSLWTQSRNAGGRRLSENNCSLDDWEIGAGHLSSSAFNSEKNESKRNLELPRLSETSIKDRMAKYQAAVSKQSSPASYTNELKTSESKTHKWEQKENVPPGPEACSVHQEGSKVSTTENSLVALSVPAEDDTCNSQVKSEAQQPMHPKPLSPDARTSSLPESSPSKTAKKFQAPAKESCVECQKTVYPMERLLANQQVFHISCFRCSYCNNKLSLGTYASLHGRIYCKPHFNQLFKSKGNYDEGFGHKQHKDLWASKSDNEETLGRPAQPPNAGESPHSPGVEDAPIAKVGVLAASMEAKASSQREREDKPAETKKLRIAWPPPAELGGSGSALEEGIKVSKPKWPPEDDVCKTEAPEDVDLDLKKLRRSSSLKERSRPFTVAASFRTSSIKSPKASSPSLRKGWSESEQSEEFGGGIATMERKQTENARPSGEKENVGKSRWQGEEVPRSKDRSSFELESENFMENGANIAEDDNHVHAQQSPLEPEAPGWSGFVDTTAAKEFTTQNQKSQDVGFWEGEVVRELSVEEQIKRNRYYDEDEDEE
UniProt Q61937: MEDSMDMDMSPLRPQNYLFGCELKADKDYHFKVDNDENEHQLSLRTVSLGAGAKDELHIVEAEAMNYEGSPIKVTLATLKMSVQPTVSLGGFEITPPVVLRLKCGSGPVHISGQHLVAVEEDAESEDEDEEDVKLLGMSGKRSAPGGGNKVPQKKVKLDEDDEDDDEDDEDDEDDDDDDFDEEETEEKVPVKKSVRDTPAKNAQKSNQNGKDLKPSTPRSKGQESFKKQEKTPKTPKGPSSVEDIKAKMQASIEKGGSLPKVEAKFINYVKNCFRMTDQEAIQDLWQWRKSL
UniProt P09103, residues 20-509: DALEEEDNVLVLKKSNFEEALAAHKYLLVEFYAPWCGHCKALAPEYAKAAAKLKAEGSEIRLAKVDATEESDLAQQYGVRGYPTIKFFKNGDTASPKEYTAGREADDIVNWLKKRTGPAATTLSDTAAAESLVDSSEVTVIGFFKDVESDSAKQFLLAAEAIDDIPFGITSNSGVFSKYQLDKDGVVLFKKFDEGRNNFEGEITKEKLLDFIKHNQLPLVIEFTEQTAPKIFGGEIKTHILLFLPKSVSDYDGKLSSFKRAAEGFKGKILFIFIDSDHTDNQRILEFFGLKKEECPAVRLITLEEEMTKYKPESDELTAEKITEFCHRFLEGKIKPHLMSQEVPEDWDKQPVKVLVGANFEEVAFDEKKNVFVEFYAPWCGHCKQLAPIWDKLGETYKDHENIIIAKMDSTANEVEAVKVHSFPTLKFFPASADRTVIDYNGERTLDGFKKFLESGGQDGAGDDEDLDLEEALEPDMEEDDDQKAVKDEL
UniProt P42227: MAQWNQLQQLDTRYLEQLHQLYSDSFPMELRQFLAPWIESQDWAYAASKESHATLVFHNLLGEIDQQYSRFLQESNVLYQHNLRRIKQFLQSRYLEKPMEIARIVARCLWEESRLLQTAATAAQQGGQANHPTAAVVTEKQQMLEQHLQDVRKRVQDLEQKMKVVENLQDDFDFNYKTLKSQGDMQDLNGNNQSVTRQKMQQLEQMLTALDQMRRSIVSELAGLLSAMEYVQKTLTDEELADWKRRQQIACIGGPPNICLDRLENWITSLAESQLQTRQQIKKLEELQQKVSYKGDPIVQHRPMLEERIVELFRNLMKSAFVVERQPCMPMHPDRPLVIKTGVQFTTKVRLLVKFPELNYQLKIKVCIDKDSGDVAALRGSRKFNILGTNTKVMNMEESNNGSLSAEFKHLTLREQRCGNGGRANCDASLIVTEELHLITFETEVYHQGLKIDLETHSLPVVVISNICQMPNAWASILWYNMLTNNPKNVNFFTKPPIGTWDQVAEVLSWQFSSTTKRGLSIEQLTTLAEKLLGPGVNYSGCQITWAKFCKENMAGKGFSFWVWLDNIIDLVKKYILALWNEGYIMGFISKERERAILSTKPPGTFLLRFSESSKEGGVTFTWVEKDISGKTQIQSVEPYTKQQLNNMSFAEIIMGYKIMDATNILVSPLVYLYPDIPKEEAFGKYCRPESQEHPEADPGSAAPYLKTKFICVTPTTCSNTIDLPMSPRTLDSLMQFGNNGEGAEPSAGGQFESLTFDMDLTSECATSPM
UniProt P57780: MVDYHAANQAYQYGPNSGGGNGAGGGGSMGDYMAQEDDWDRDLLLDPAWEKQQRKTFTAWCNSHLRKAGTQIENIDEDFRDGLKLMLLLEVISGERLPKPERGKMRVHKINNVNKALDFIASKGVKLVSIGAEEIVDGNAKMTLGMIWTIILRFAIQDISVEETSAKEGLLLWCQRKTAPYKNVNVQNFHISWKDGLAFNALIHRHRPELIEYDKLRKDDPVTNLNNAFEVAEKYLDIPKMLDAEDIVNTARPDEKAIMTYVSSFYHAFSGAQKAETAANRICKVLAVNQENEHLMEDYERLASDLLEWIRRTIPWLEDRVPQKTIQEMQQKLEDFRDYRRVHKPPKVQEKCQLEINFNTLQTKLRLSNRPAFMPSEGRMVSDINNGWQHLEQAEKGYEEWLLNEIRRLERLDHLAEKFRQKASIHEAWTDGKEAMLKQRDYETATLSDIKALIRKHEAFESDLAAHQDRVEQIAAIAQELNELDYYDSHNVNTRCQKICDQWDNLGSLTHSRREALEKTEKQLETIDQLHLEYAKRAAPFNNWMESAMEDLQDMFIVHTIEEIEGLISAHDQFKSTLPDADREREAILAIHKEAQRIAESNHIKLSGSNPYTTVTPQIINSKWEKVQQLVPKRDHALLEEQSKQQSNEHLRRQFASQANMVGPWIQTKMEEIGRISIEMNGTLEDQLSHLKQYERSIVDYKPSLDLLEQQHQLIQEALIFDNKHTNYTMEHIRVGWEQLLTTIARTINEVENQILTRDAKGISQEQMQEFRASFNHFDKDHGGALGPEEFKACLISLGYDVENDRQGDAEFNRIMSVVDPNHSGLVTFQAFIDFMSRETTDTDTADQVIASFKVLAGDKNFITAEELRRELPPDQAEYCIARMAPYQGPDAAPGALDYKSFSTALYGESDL

Results are given in words; binding and its absence hold for the method and conditions named. In cells and extracts the contact can be indirect. Here binding means that the protein was enriched with, or labelled near, the bait; the list need not be complete. Tags and fused reporters may be left off the sequences shown.

Drawing on publication PMC12189954, this text covers binding for five substances.

For the substance “Lin-11 Isl-1 Mec-3 (LIM domain) and actin-binding protein 1 (LIMA1) (from UniProt Q9ERG0 1-753)”, the binding entry is on record as “binds”.

As for “nucleophosmin (NPM1) (from UniProt Q61937 1-292)”, the binding result is “binds”.

“protein disulfide isomerase (P4HB) (from UniProt P09103 20-509)”: the binding result is given as “binds”.

On to “signal transducer and activator of transcription 3 (STAT3), endogenous in HL-1 cells (from UniProt P42227 1-770)”, for which the binding result is “binds”.

As for “α-actinin 4 (ACTN4) (from UniProt P57780 1-912)”, the binding result is listed as “binds”.
